Experimental data taken from the supplement of paper PMC4604168 (melanoma cell lines).
Some of the results follow. Repeats are few or missing, and single values can be far off.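 The apoptosis fraction was the count of cleaved-PARP antibody-stained nuclei relative to all DNA-stained nuclei, imaged in 1,536-well plates. Screening doses were set so most cells survived, and baseline and induced cleaved-PARP levels vary greatly across cell lines.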

System: CBRC008 (line from a melanoma biopsy)
Assay: cleaved PARP positive nuclei fraction relative to DMSO control; melanoma cells; higher = more apoptosis
Settings: library dose: low library concentration; 72 h

Row | Structure (SMILES) | cleaved PARP positive nuclei fraction
1 | Cn1cc(C2=C(c3cn(C4CCN(Cc5ccccn5)CC4)c4ccccc34)C(=O)NC2=O)c2ccccc21 [Enzastaurin] + C[C@]1(O)C[C@@H](c2nc(-c3ccc4ccc(-c5ccccc5)nc4c3)c3c(N)nccn32)C1 [OSI906] (first compound 0.8 µM, partner dose 0.4 µM) | 48.8%
2 | O=C(/C=C/c1cccnc1)NCCCCC1CCN(C(=O)c2ccccc2)CC1 + N.N.[Cl][Pt][Cl] [cisplatin] (first compound 0.01 µM, partner dose 1.6 µM) | 2320%
3 | O=C(Nc1cc(C(F)(F)F)cc(C(F)(F)F)c1)c1cc(Cl)ccc1O + Cn1cc(C2=C(c3cn(C4CCN(Cc5ccccn5)CC4)c4ccccc34)C(=O)NC2=O)c2ccccc21 [Enzastaurin] (first compound 0.016 µM, partner dose 0.8 µM) | 121%
4 | C#Cc1cccc(Nc2ncnc3cc(OCCOC)c(OCCOC)cc23)c1 [erlotinib] + C[As](C)SC[C@H](NC(=O)CC[C@H](N)C(=O)O)C(=O)NCC(=O)O [Darinaparsin] (first compound 0.8 µM, partner dose 0.4 µM) | 193%
5 | Cn1cnc2c(F)c(Nc3ccc(Br)cc3Cl)c(C(=O)NOCCO)cc21 [selumetinib] + Cn1cc(C2=C(c3cn(C4CCN(Cc5ccccn5)CC4)c4ccccc34)C(=O)NC2=O)c2ccccc21 [Enzastaurin] (first compound 0.015 µM, partner dose 0.8 µM) | 196%
6 | N.N.[Cl][Pt][Cl] [cisplatin] + C[C@@H](Oc1cc(-c2cnn(C3CCNCC3)c2)cnc1N)c1c(Cl)ccc(F)c1Cl [Crizotinib] (first compound 1.6 µM, partner dose 0.2 µM) | 232%

System: CBRC014 (line from a melanoma biopsy)
Assay: as above
Settings: library dose: low library concentration; 72 h

Row | Structure (SMILES) | cleaved PARP positive nuclei fraction
7 | Cn1cc(C2=C(c3cn(C4CCN(Cc5ccccn5)CC4)c4ccccc34)C(=O)NC2=O)c2ccccc21 [Enzastaurin] + O=C(O)[C@@H]1[O][Sb](=[O])([O][Sb]2(=[O])[O][C@H]([C@H](O)CO)[C@H](O)[C@H](C(=O)O)[O]2)[O][C@H]([C@H](O)CO)[C@@H]1O [stibogluconate] (first compound 0.8 µM, partner dose 2 µM) | 70.3%
8 | C[C@]12O[C@H](C[C@]1(O)CO)n1c3ccccc3c3c4c(c5c6ccccc6n2c5c31)CNC4=O [Lestaurtinib] + CNC(=O)c1cc(Oc2ccc(NC(=O)Nc3ccc(Cl)c(C(F)(F)F)c3)cc2)ccn1 [sorafenib] (first compound 0.004 µM, partner dose 0.4 µM) | 88.6%
9 | CC1(C)CCC(c2ccc(Cl)cc2)=C(CN2CCN(c3ccc(C(=O)NS(=O)(=O)c4ccc(N[C@H](CCN5CCOCC5)CSc5ccccc5)c(S(=O)(=O)C(F)(F)F)c4)cc3)CC2)C1 + Cn1cc(C2=C(c3cn(C4CCN(Cc5ccccn5)CC4)c4ccccc34)C(=O)NC2=O)c2ccccc21 [Enzastaurin] (first compound 0.4 µM, partner dose 0.8 µM) | 556%
10 | Cn1cc(C2=C(c3cn(C4CCN(Cc5ccccn5)CC4)c4ccccc34)C(=O)NC2=O)c2ccccc21 [Enzastaurin] + O=C(O)c1ccc2c(c1)nc(Nc1cccc(Cl)c1)c1ccncc12 [CX4945] (first compound 0.8 µM, partner dose 0.4 µM) | 104%
11 | N.N.[Cl][Pt][Cl] [cisplatin] + CNC(=O)c1cc(Oc2ccc(NC(=O)Nc3ccc(Cl)c(C(F)(F)F)c3)cc2)ccn1 [sorafenib] (first compound 1.6 µM, partner dose 0.4 µM) | 221%
12 | N.N.[Cl][Pt][Cl] [cisplatin] + CS(=O)(=O)CCNCc1ccc(-c2ccc3ncnc(Nc4ccc(OCc5cccc(F)c5)c(Cl)c4)c3c2)o1 [lapatinib] (first compound 1.6 µM, partner dose 0.8 µM) | 112%
13 | C[C@]12O[C@H](C[C@]1(O)CO)n1c3ccccc3c3c4c(c5c6ccccc6n2c5c31)CNC4=O [Lestaurtinib] + Cc1cc(Nc2cc(N3CCN(C)CC3)nc(/C=C/c3ccccc3)n2)n[nH]1 [ENMD2076] (first compound 0.004 µM, partner dose 0.04 µM) | 89.9%
14 | C[As](C)SC[C@H](NC(=O)CC[C@H](N)C(=O)O)C(=O)NCC(=O)O [Darinaparsin] + Cn1nnc2c(C(N)=O)ncn2c1=O [temozolomide] (first compound 0.4 µM, partner dose 2 µM) | 102%

2 neighbouring records from above:
Row | Structure (SMILES) | cleaved PARP positive nuclei fraction
9 | CC1(C)CCC(c2ccc(Cl)cc2)=C(CN2CCN(c3ccc(C(=O)NS(=O)(=O)c4ccc(N[C@H](CCN5CCOCC5)CSc5ccccc5)c(S(=O)(=O)C(F)(F)F)c4)cc3)CC2)C1 + Cn1cc(C2=C(c3cn(C4CCN(Cc5ccccn5)CC4)c4ccccc34)C(=O)NC2=O)c2ccccc21 [Enzastaurin] (first compound 0.4 µM, partner dose 0.8 µM) | 556%
10 | Cn1cc(C2=C(c3cn(C4CCN(Cc5ccccn5)CC4)c4ccccc34)C(=O)NC2=O)c2ccccc21 [Enzastaurin] + O=C(O)c1ccc2c(c1)nc(Nc1cccc(Cl)c1)c1ccncc12 [CX4945] (first compound 0.8 µM, partner dose 0.4 µM) | 104%
